# Reference: patent US20110039795A1, “2'-O,3'-N-BRIDGED MACROLIDES” (priority 2008, published 2011)
# Some results were stated once for a whole list of compounds, not compound by compound.
# Assays:
# [1] = tested on: IL-6 production in LPS-stimulated murine splenocytes; experiment: Inhibition of IL-6 production in LPS-stimulated murine splenocytes in vitro; type: cell-based, mouse; conditions: 50 μM or/and 25 μM concentration of the compound
# male BALB/cJ mice = experiment: Lung neutrophilia induced by bacterial lipopolysaccharide (LPS) in male BALB/cJ mice; type: in vivo, mouse; conditions: single dose of 200 mg/kg i.p.; LPS intranasally; compared to positive control
# CD1 mice = experiment: Phorbol 12-myristate 13-acetate induced ear edema in CD1 mice; type: in vivo, mouse; conditions: applied topically once in a dose 500 μg/ear; PMA induced ear edema
# Description: Phorbol 12-Myristate 13-Acetate Induced Ear Edema in CD1 Mice
# Male CD1 mice (Charles River, France) weighing 30-40 g are randomly grouped (n=8 in test group of which the untreated ear serves as negative control; 8 in positive control group which also serves as their own negative control group). Test compounds, as well as vehicle (Trans-phase Delivery system, containing benzyl alcohol 10%, acetone 40% and isopropanol 50%) (all from Kemika, Croatia), are administered topically to the internal surface of the left ear 30 minutes prior to administration of phorbol 12-myristate 13-acetate (PMA) (Sigma, USA). Test compounds are administered at a dose 500 μg in 15 μL per ear. 30 minutes later, 0.01% PMA solution in acetone is applied topically to the inner surface of the left ear of each animal in a volume of 12 μL per ear. During the treatment and challenge, animals are anesthetized with anesthesia by inhalation. 6 h following challenge, animals are euthanized by intraperitoneal thiopental injection (PLIVA, Croatia). For assessing the auricular edema, 8 mm discs are cut out of left and right auricular pinna and weighed. The degree of edema is calculated by subtracting the weight of 8 mm disc of the untreated ear from that of the treated contralateral ear. The inhibition of edema in the treated animals is expressed as percentage compared to control mice.
substance,measurement,setting,value
"2′-O,3′-N-(Carbonimidoyl)-3′-N-demethyl-6-O-methyl-N′-(1-naphthyl)-9a-aza-9a-homoerythromycin A [Example 6]",inhibition of interleukin-6 (IL-6) production in LPS-stimulated splenocytes,[1],more than 80%
same,inhibition of number of neutrophils in BALF,male BALB/cJ mice,more than 50%
same,inhibition of total cell number in BALF,male BALB/cJ mice,more than 50%
same,inhibition of edema,CD1 mice,more than 50%
